Some results come without the dose or concentration used.
Test: Modified fish diet study: fold differences of serum metabolites
Type: in vivo, Bottlenose dolphins (Tursiops truncatus)
Details: for Significant fold differences in serum between Month 0 and Month 1 in Modified Diet group: Month 1 vs Month 0

| Compound | Significant fold differences in serum between Baseline and Modified Diet groups at Month 1 | Significant fold differences in serum between Month 0 and Month 1 in Modified Diet group |
| --- | --- | --- |
| CCCCCCC=CCCCCCCCCC(=O)O [10-heptadecanoate (C17:1n7), 10-heptadecanoate] | 2.31 | 2.2 |
| CCCCCCCCCCCCCCC=COCC(O)COP(=O)([O-])OCC[N+](C)(C)C (stereo not drawn) [1-(1-enyl-palmitoyl)-GPC (P-16:0)] | 1.42 | 1.27 |
| CCCCC/C=C\C/C=C\C/C=C\C/C=C\CCCC(=O)O[C@H](COC(=O)CCCCCCCCCCCCCCC)COP(=O)(O)OCCN [1-palmitoyl-2-arachidonoyl-GPE (16:0/20:4)] | 2.22 | 2.48 |
| CCCCCCCCCCCCCCCCCCCCCCCC(=O)OC[C@@H](O)COP(=O)([O-])OCC[N+](C)(C)C [1-lignoceroyl-GPC (24:0)] | 2.96 | 2.86 |
| CCCCCCCCCCCCC/C=C/[C@@H](O)[C@H](COP(=O)([O-])OCC[N+](C)(C)C)NC(=O)CCCCCCCCCCCCCCCCCCCCCCC [Lignoceroyl sphingomyelin (d18:1/24:0), lignoceroyl sphingomyelin (d18:1/24:0)] | 2.73 | 2.3 |
| CCCCC/C=C\C/C=C\C/C=C\C/C=C\CCCC(=O)O[C@H](CO/C=C\CCCCCCCCCCCCCC)COP(=O)(O)OCCN [1-(1-enyl-palmitoyl)-2-arachidonoyl-GPE (P-16:0/20:4)] | 2.01 | 1.93 |
| sphingomyelin (d18:2/23:0, d18:1/23:1, d17:1/24:1) | 1.97 | 1.69 |
| CC(C)CCCCCCCCCCCCCC(=O)O [15-methylpalmitate (i17:0), 15-methylpalmitate] | 1.23 | 1.18 |
| O=C(O)Cc1cn(C2OC(CO)C(O)C2O)cn1 (stereo not drawn) [1-ribosyl-imidazoleacetate] | 2.47 | 3.29 |
| sphingomyelin (d18:1/19:0, d19:1/18:0) | 1.95 | 1.83 |
| CCCCCCCCCCCCC/C=C/[C@@H](O)[C@H](COP(=O)([O-])OCC[N+](C)(C)C)NC(=O)CCCCCCCCCCCCCCCCC [Stearoyl sphingomyelin (d18:1/18:0), stearoyl sphingomyelin (d18:1/18:0)] | 1.24 | 1.21 |
| dodecadienoate [Dodecadienoate (C12:2)] | 2.91 | 1.82 |
| CCCCC/C=C\C/C=C\C/C=C\C/C=C\CCCC(=O)O[C@H](COC(=O)CCCCCCCCCCCCCCC)COP(=O)([O-])OCC[N+](C)(C)C [1-palmitoyl-2-arachidonoyl-GPC (16:0/20:4n6)] | 1.83 | 1.94 |
| CCCCC/C=C\C/C=C\C/C=C\C/C=C\CCCC(=O)O[C@H](COC(=O)CCCCCCCCCCCCCCCCC)COP(=O)([O-])OCC[N+](C)(C)C [1-stearoyl-2-arachidonoyl-GPC (18:0/20:4)] | 1.71 | 1.92 |
| sphingomyelin (d18:2/24:2) | 1.51 | 1.31 |
| CCCCC/C=C\C/C=C\C/C=C\C/C=C\CCCC(=O)OCC(O)CO (stereo not drawn) [1-arachidonylglycerol (20:4)] | 2.43 | 2.25 |
| CCCCCCC(O)C(=O)O (stereo not drawn) [2-hydroxyoctanoate] | 1.29 | 1.29 |
| CCCCCCCCCCCCCCC(=O)O[C@H](CC(=O)[O-])C[N+](C)(C)C [Pentadecanoylcarnitine (C15), pentadecanoylcarnitine] | 2.63 | 2.92 |
| CCCCCCCCC=CCCCCCCCCC(=O)O [10-nonadecanoate (19:1n9), 10-nonadecanoate] | 1.34 | 1.37 |
| oleoyl-arachidonoyl-glycerol (18:1/20:4) [2] | 3.37 | 2.93 |
| sphingomyelin (d18:2/23:1) | 1.32 | 1.16 |
| CCCCCCCCCCCCC/C=C/[C@@H](O)[C@H](COP(=O)([O-])OCC[N+](C)(C)C)NC(=O)CCCCCCCCCCCCCCCCCCCCC [Behenoyl sphingomyelin (d18:1/22:0), behenoyl sphingomyelin (d18:1/22:0)] | 1.63 | 1.46 |

| Compound | Significant fold differences in serum between Baseline and Modified Diet groups at Month 1 | Significant fold differences in serum between Month 0 and Month 1 in Modified Diet group |
| --- | --- | --- |
| CCCCCCCCCCCCCCCCC(=O)O [Margarate (C17:0), margarate] | 2.4 | 2.52 |
| cis-4-decenoylcarnitine [Cis-4-decenoylcarnitine (C10:1)] | 2.13 | 2.7 |
| oleoyl-arachidonoyl-glycerol (18:1/20:4) [1] | 1.68 | 1.65 |
| sphingomyelin (d18:1/21:0, d17:1/22:0, d16:1/23:0) | 2.05 | 1.93 |
| CCCCC/C=C\C/C=C\C/C=C\C/C=C\CCCC(=O)O[C@H](COC(=O)CCCCCCCCCCCCCCCCC)COP(=O)(O)OCCN [1-stearoyl-2-arachidonoyl-GPE (18:0/20:4)] | 1.92 | 2.08 |
| sphingomyelin (d17:2/16:0, d18:2/15:0) | 1.76 | 1.61 |
| CCCCCCCC/C=C\CCCCCCCC(=O)O[C@H](COC(=O)CCCCCCCCCCCCCCCCC)COP(=O)(O)OC[C@H](N)C(=O)O [1-stearoyl-2-oleoyl-GPS (18:0/18:1)] | 1.92 | – |
| CCCCC/C=C\C/C=C\C/C=C\C/C=C\CCCC(=O)O[C@H](CO/C=C\CCCCCCCCCCCCCCCC)COP(=O)(O)OCCN [1-(1-enyl-stearoyl)-2-arachidonoyl-GPE (P-18:0/20:4)] | 2.26 | 2.29 |
| sphingomyelin (d17:1/16:0, d18:1/15:0, d16:1/17:0) | 2.88 | 2.56 |
| CCCCCCCCCCCCCCCC(=O)NCC(=O)O [N-palmitoylglycine] | – | 1.15 |
| NC(N)=N[C@@H](CC(=O)O)C(=O)O [Guanidinosuccinate] | 1.84 | 1.53 |
| sphingomyelin (d18:1/17:0, d17:1/18:0, d19:1/16:0) | 1.99 | 1.82 |
| sphingomyelin (d17:1/14:0, d16:1/15:0) | 2.88 | 2.9 |
| O=C1CCCN1 [2-pyrrolidinone] | 1.16 | 1.12 |
| CC(C)CCCCCCCCCCCCCCCC(=O)O [17-methylstearate (i19:0), 17-methylstearate] | 1.37 | 1.36 |
| CCCCC/C=C\C/C=C\C/C=C\C/C=C\CCCC(=O)OC[C@@H](O)COP(=O)(O)OCCN [1-arachidonoyl-GPE (20:4n6)] | 2.06 | 2.2 |
| sphingomyelin (d18:2/21:0, d16:2/23:0) | 1.22 | 1.08 |
| CCCCC/C=C\C/C=C\C/C=C\C/C=C\CCCC(=O)OCC[N+](C)(C)C [Arachidonoylcholine] | 2.54 | 2.57 |
| CCCCC/C=C\C/C=C\C/C=C\C/C=C\CCCC(=O)OC[C@@H](O)COP(=O)([O-])OCC[N+](C)(C)C [1-arachidonoyl-GPC (20:4n6)] | 2.22 | 2.33 |
| C=CCCCCCCCCC(=O)O [10-undecanoate (C11:1n1), 10-undecanoate] | 1.98 | 1.92 |
| stearoyl-arachidonoyl-glycerol (18:0/20:4) [2] | 1.79 | 1.7 |

From patent US11992473B2, “Compositions and methods for diagnosis and treatment of conditions related to the quality of aging and longevity” (Epitracker, Inc., priority 2018, dated 2024)
